Source: PubChem BioAssay AID720505 (Drosophila RNAi Screening Center, 2013)

- Assay: 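Genes needed for store-operated calcium entry in fly cells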 (primary screen)
- Cells: Drosophila S2R+ cells
- Knock-down reagent: long dsRNA against Drosophila genes
- Treatment: thapsigargin (2 µM) in calcium-free buffer to empty internal stores, then 2 mM calcium added back
- Measurement: 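Fluo-4 signal in 384-well plates read on a FLIPR after thapsigargin (2 µM, calcium-free) store depletion and 2 mM calcium add-back; unnormalised mean endpoint per well; screen run twice, selected wells retested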
- Reading the numbers: calcium signal: higher = more calcium entry after store depletion
- Rule for the call: 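Knock-downs counted as hits when calcium entry dropped relative to STIM1 positive and Rho1 negative controls present on each plate; roughly 1500 genes called, with reductions of differing size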
- Meaning of the calls: active = called as lowering calcium entry; inactive = not called
In all, the deposit lists about 20,000 reagents; shown is a random part of those that have a named target and a result. Over the whole deposit, about 2,100 (10%) are marked active. 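Raw plate signals without normalisation; calls rest on control-based scores that were not deposited; replicate 2 separates called from uncalled poorly.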 Names joined by + are all predicted targets of the reagent. The record does not give: the amount of reagent, the time to read-out.

gene,DRSC id,"calcium signal, replicate 1","calcium signal, replicate 2",Call
wech (GeneID 44653),DRSC06606,59.8,152,active
tho2 (GeneID 326153),DRSC00646,73.3,96.8,inactive
Mal-A7 (GeneID 35829),DRSC06077,160,114,inactive
CG9536 (GeneID 33904),DRSC03254,90.4,218,inactive
eIF4A (GeneID 33835),DRSC03526,148,97.7,inactive
Sgs3 (GeneID 39288),DRSC11280,118,101,inactive
CG5561 (GeneID 33321),DRSC00688,155,155,inactive
CG5056 (GeneID 34406),DRSC02808,182,146,inactive
CG32436 (GeneID 40362),DRSC11683,95.4,115,inactive
CG32436 (GeneID 40362),DRSC11796,83.5,155,inactive
CG7739 (GeneID 39684),DRSC10910,74.6,105,inactive
Hap40 (GeneID 32507),DRSC20085,119,106,inactive
snf (GeneID 31442),DRSC18835,76.5,68.2,inactive
NHP2 (GeneID 44005),DRSC11229,105,130,inactive
Osi19 (GeneID 40776),DRSC12569,128,131,inactive
GLS (GeneID 36396),DRSC07261,129,104,inactive
Nazo (GeneID 40976),DRSC14343,89.5,143,inactive
CG14834 (GeneID 38814),DRSC10204,75.9,65.8,inactive
Acat2 (GeneID 38147),DRSC08630,88.5,106,inactive
CG6209 (GeneID 36517),DRSC06968,108,225,inactive
Obp47b + CG7741,DRSC06330,106,141,inactive
Pgm2a (GeneID 35923),DRSC07068,155,123,inactive
vls (GeneID 35289),DRSC02101,111,133,inactive
CG12268 (GeneID 42833),DRSC14491,254,191,inactive
CG31115 (GeneID 318597),DRSC13692,,,active
CG10734 (GeneID 36787),DRSC05998,142,167,inactive
ppk25 (GeneID 2768722),DRSC04973,109,101,inactive
CG32054 (GeneID 326185),DRSC10684,88.9,109,inactive
cv (GeneID 44510),DRSC17833,103,95.4,active
His2B:CG33870 + His2B:CG33868 + His2B:CG33882 + 21 more,DRSC03757,51.2,114,active
SMC3 (GeneID 32627),DRSC20227,76.8,118,inactive
AIF (GeneID 33390),DRSC00696,100,128,inactive
lap (GeneID 40863),DRSC12628,103,155,inactive
SCCRO3 (GeneID 36426),DRSC06359,104,142,inactive

Sorted by “calcium signal, replicate 1” (highest first): some entries from above
gene,DRSC id,"calcium signal, replicate 1","calcium signal, replicate 2",Call
Mal-A7 (GeneID 35829),DRSC06077,160,114,inactive
CG5561 (GeneID 33321),DRSC00688,155,155,inactive
eIF4A (GeneID 33835),DRSC03526,148,97.7,inactive
Sgs3 (GeneID 39288),DRSC11280,118,101,inactive
CG9536 (GeneID 33904),DRSC03254,90.4,218,inactive
